From patent publication US20240075050A1, “Methods and Compositions for Treating Leucine Rich Repeat Kinase 2 (LRRK2)-Associated Disorder or Condition” (University of Connecticut, priority 2022, published 2024) come the findings set out here.

The data set concerns ATIC KO cells. The data set can be described thus: AICAR/ZMP in WT and ATIC knockout cells measured by UPLC. The note with it: for AICAR/ZMP concentration: UPLC. Format: cell-based, human.

Values joined by “and” are separate entries in the source; they are usually repeats but may differ in a detail not shown here. Equal values may be shown once.

As for `NC(=O)c1ncn([C@@H]2O[C@H](COP(=O)(O)O)[C@@H](O)[C@H]2O)c1N` [AICAR/ZMP, 5-aminoimidazole-4-carboxamide ribonucleotide], the AICAR/ZMP concentration (ATIC KO cells) was 1557 ng/mL and the AICAR/ZMP concentration result (WT cells) is “undetectable”. Further, the “AICAR/ZMP Average” value (ATIC knockout cells, average of KO-1 to KO-3, UPLC) is 1557.21 ng/mL. For the same molecule, where the note is “ATIC knockout cells, samples KO-1, KO-2, KO-3, UPLC”, the “AICAR/ZMP” value is 1595.86 ng/mL and 1585.20 ng/mL and 1490.57 ng/mL.
